Record: PubChem BioAssay AID1671195 (Yale University, 2021)
In all, the deposit lists about 22,000 reagents; shown is a random part of them. Of all reagents, about 1,510 (6.9%) were called active. 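Active includes knockdowns raising or lowering LDL uptake; positive z-scores mean more uptake, negative mean less.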 Entries without a mark were called inactive. No sequences are given here.

Assay: 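Regulators of LDL receptor activity judged by labelled LDL uptake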 (primary screen)
Cell system: human Huh7 hepatoma cells
Reagents: siRNA pool against human genes, 18 nM
Time to read-out: about 2 to 2.5 days of knockdown, then 8 h LDL uptake
Conditions: DiI-labelled LDL at 30 µg/ml for 8 h, in lipoprotein-deficient serum medium
Read-out: 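Fluorescent LDL signal imaged in cells, scaled to the plate median, robust z-score for each replicate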
Reading the numbers: robust z-score: higher = more LDL uptake after knockdown
Hit rule: 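a gene counts as active if at least two replicate z-scores exceed ±2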

Target gene | robust z-score, replicate 1 | robust z-score, replicate 2 | robust z-score, replicate 3
LOC441529 (retired record) | 0.212 | -1.09 | -1.01
COL20A1 | -0.0617 | 0.102 | 1.71
STK38 | -0.688 | -1.3 | -0.536
PIK3CB | -1.84 | -1.86 | -1.95
RPS23P2 | 0.642 | -0.416 | -0.376
NARS2 | 0.52 | -0.157 | -0.981
CFB | -0.621 | 0.0671 | 0.0439
INCA1 | -1.16 | -0.984 | -0.974
FTH1 | -1.1 | -2.04 | -1.42
LOC389473 | -1.85 | -2.08 | -1.63
FAM170A | 4.45 (active) | 4.33 | 4.59
LOC400496 (retired record) | -0.185 | 0.187 | 0.0698
TK2 | -1.17 | 3.4 | -0.336
LOC166994 (retired record) | -0.302 | 0.215 | -0.373
INA | 1.33 | 0.313 | 1.06
PCDHB12 | 1.51 | 1.31 | 1.48
FERMT3 | 1.36 | -0.0353 | -0.729
FAM50B | 0.856 | 1.52 | -0.296
LCE2C | -0.639 | -0.995 | -0.294
SLC12A4 | -0.589 | 0.153 | -0.192
CDH22 | 0.605 | 0.607 | 0.68
OR5K2 | 0.708 | 0.27 | 1.19
ZNF71 | 0.418 | 0.212 | 0.145
CCDC30 | -0.189 | 0.43 | 0.0505
STX2 | -0.314 | 0.262 | 0.148
OXSM | -0.233 | -0.463 | -0.209
SLCO1B7 | -0.278 | -0.192 | 0.0862
TEX14 | -0.974 | -0.866 | -0.977
